Reference: patent EP4831182A1, “COMPOUND HAVING DUAL DEGRADATION ACTIVITY AGAINST IRAK4 AND FLT3 PROTEINS, PHARMACEUTICAL COMPOSITION COMPRISING SAME, AND USE THEREOF” (dated 2026)
The match of structure and compound is tentative.

Test system: MOLM-13 tumor cells
Assay: Inhibition of tumor cell proliferation assay (CellCounting-Lite)
Settings: for IC50: read-out: MOLM-13 IC50, MOLM-13 cells, 48 hours; for inhibitory activity against the proliferation of MOLM-13 tumor cells (in words): summary statement
Experimental: Human acute myeloid leukemia cell line MOLM-13 (ATCC) was used and cultured in a sterile incubator at 37-38 °C, pH 7.2-7.4, under 5% CO2. MOLM-13 cells (1×10^4 per well) were seeded in 96-well plates, treated with compounds at various concentrations, and incubated further.
After 48 hours of cell culture, an equal volume of CellCounting-Lite reagent (DD1101-01, Vazyme) was added, mixed by shaking for 5 minutes, and left at room temperature for 10 minutes. Cell proliferation was measured using a VICTOR Nivo multimode plate reader.

| Compound | IC50 [nM] | inhibitory activity against the proliferation of MOLM-13 tumor cells (in words) |
| --- | --- | --- |
| COC1CCN(c2nc3nc(N4CCN(CCN5CC6(C5)CN(c5ccc7c(c5)C(=O)N(C5CCC(=O)NC5=O)C7=O)C6)CC4)oc3cc2C(=O)Nc2cccc(-c3cnn(C)c3)n2)CC1 (stereo not shown) | 54 | possess inhibitory activity |
| COC1CCN(c2nc3nc(N4CCN(C5CCN(C(=O)c6ccc7c(c6)CN(C6CCC(=O)NC6=O)C7=O)CC5)CC4)oc3cc2C(=O)Nc2cccc(-c3cnn(C)c3)n2)CC1 (stereo not shown) | 87 | possess inhibitory activity |
| COC1CCN(c2nc3nc(N4CCN(C(=O)C5CCN(c6ccc7c(c6)C(=O)N(C6CCC(=O)NC6=O)C7=O)CC5)CC4)oc3cc2C(=O)Nc2cccc(-c3cnn(C)c3)n2)CC1 (stereo not shown) | 41 | possess inhibitory activity |
| COC1CCN(c2nc3nc(N4CCN(C(=O)CN5CCN(c6ccc7c(c6)C(=O)N(C6CCC(=O)NC6=O)C7=O)CC5)CC4)oc3cc2C(=O)Nc2cccc(-c3cnn(C)c3)n2)CC1 (stereo not shown) | 87 | possess inhibitory activity |
| COC1CCN(c2nc3nc(N4CCN(CC5CCN(c6ccc7c(c6)C(=O)N(C6CCC(=O)NC6=O)C7=O)CC5)CC4)oc3cc2C(=O)Nc2cccc(-c3cnn(C)c3)n2)CC1 (stereo not shown) | 516 | – |
| COC1CCN(c2nc3nc(N4CCN(CCN5CCN(c6ccc7c(c6)C(=O)N(C6CCC(=O)NC6=O)C7=O)CC5)CC4)oc3cc2C(=O)Nc2cccc(-c3cnn(C)c3)n2)CC1 (stereo not shown) | 129 | possess inhibitory activity |
| COC1CCN(c2nc3nc(N4CCN(CC5CN(c6ccc7c(c6)C(=O)N(C6CCC(=O)NC6=O)C7=O)C5)CC4)oc3cc2C(=O)Nc2cccc(-c3cnn(C)c3)n2)CC1 (stereo not shown) | 157 | possess inhibitory activity |
